From PubChem BioAssay AID540276 (National Center for Advancing Translational Sciences (NCATS), 2011)
Values joined by “and” are separate entries in the source; they are usually repeats but may differ in a detail not shown here. Equal values may be shown once. About 5,400 (1.8%) of roughly 300,000 compounds were called active. This list was built around the results that the source calls inconclusive (neither active nor inactive); the mix of calls is not that of the screen. The call rests on the fitted dose curve; tested in HEK293 cells. A potency beside an inconclusive call is a rough fit, not a confirmed value.

Test: qHTS for inhibitors of binding or entry into cells for Marburg Virus
Details: Marburg virus pseudotyped entry inhibition, cell reporter; activity change, negative = inhibition: at 37.8 µM (top of the series) unless noted
On the % scale 0 is the no-effect control and ±100 the full control effect; potency means the concentration at half of the fitted maximal effect.

Structure (SMILES) | Potency | activity change, negative = inhibition
CN(C)/C=N/c1ncnc2c1cnn2-c1ccc(C(F)(F)F)cn1 | inconclusive: 3.98 µM [activator, full curve] | 
CC1CCN(C(=O)Cn2c(=O)n(CCCCCC(=O)NCc3ccccc3Cl)c(=O)c3sccc32)CC1 | inconclusive: 12.6 µM [inhibitor, single point] | 
CC(=O)Nc1cc(-c2nc3cc(Cl)ccc3o2)ccc1C |  | inactive: -10.1% [at 46.1 µM]
Cc1ccc(N/C(=N/S(=O)(=O)c2cccs2)c2ccccc2)c(C)c1 | inconclusive: 10 µM [inhibitor, partial curve, poor fit] | 
CC/C(=N\Nc1ccc([N+](=O)[O-])cc1)c1ccccc1 |  | inactive: -9.71%
COc1ccc(NC(=O)Nc2ccc3nonc3c2)cc1 | inconclusive: 0.562 µM [activator, full curve, poor fit] | 
CCN(C(=O)Cn1c(=O)n(CCCS(=O)(=O)C2CCCCC2)c(=O)c2ccccc21)c1cccc(C)c1 |  | inactive: 5.71% [at 46.1 µM]
COc1ccc(C(=O)NC2CCCN(Cc3ccccc3F)C2)c(OC)c1OC (stereo not drawn) | inconclusive: 11.2 µM [inhibitor, partial curve] | 
CCN(CC)CCCN1C(=O)c2oc3ccccc3c(=O)c2C1c1cc(OC)ccc1OC (stereo not drawn) | inconclusive: 0.231 µM [activator, single point] | 
Cc1ccc(NC(=O)N2CCc3cc(S(=O)(=O)N4CCC(C)CC4)ccc32)cc1 |  | inactive: 25.1% [at 46.1 µM]
COc1ccccc1N1CCN(C(=O)Cn2ncc3ccsc3c2=O)CC1 |  | inactive: 13.1% [at 46.1 µM]
CCN(c1cccc(C(F)(F)F)c1)S(=O)(=O)c1ccc2c(c1)CCN2C(=O)C1CC1 | inconclusive: 14.1 µM [inhibitor, partial curve, poor fit] | 
CCOc1ccccc1N1CCN(C(=O)c2ccc3nc(N)sc3c2)CC1 | inconclusive: 0.282 µM [inhibitor, full curve, poor fit] | 
COc1ccc(C(CCN(Cc2ccc(OC)c(OC)c2)C(=O)CCl)c2ccccc2)cc1 (stereo not drawn) | inconclusive: 17.8 µM [inhibitor, partial curve, poor fit] | 
CN(C)C1(CNC(=O)COc2ccc([N+](=O)[O-])cc2)CCCCC1 |  | inactive: 1.71% [at 46.1 µM]
COC(=O)c1c(NC(=O)c2ccco2)sc2c1CC(C)(C)NC2(C)C | inconclusive: 35.5 µM [inhibitor, single point] | 
CCOc1ccc(C(=O)CCC(=O)NNC(=O)c2ccccc2O)cc1 |  | inactive: 22.7% [at 46.1 µM]
Cc1ccc(/C=N/NC(=O)c2csc(C)c2)o1 |  | inactive: 13%
Cc1ccccc1CNS(=O)(=O)c1ccccc1[N+](=O)[O-] | inconclusive: 3.16 µM [activator, single point] | 
CCc1ccc(NS(=O)(=O)c2ccc3oc(=O)c4ncn(CC)c4c3c2)cc1 |  | inactive: 3.56% [at 46.1 µM]
FC(F)(F)c1nnc(-c2ccccc2)nc1Sc1ccccc1 | inconclusive: 22.4 µM [inhibitor, partial curve, poor fit] | 
CCCCOc1ccc(C(=O)NNC(=S)NC(=O)CC)cc1 | inconclusive: 1 µM [inhibitor, full curve, poor fit] | 
Cc1cccn2c(=O)c3cc(C(=O)NCc4cccnc4)c(=N)n(C(C)C)c3nc12 | inconclusive: 1.83 µM [inhibitor, partial curve, poor fit] | 

Structure (SMILES) | Potency | activity change, negative = inhibition
COc1cc2c(cc1OC)[C@@H]1O[C@](c3ccsc3)(C2)Oc2cc(-c3ccccc3)oc(=O)c21 | inconclusive: 0.9 nM [activator] and inconclusive: 11.9 nM [inhibitor, full curve, poor fit] | 
O=C(Nc1ccc(N2CCOCC2)cc1)c1ccc(COc2ccccc2)cc1 | inconclusive: 0.631 µM [inhibitor, full curve, poor fit] | 
COC(=O)c1c(NC(=O)c2cccnc2)sc(C)c1C |  | inactive: -1.75%
COc1cccc(-c2nc(NCc3cccnc3)c3ccccc3n2)c1O | inconclusive: 1 µM [inhibitor, partial curve, poor fit] | 
Cc1ccc(-c2noc(CN3CCCCC3)n2)cc1 | inconclusive: 2.91 µM [activator, partial curve, poor fit] | 
Cc1ccc(NC(=O)/C(C#N)=C/c2cccs2)c(C)c1 | inconclusive: 2.82 µM [activator, partial curve, poor fit] | 
COc1ccc(CNc2nc(-c3ccccc3)nn2S(=O)(=O)c2ccccc2)cc1 |  | inactive: 3.99% [at 46.1 µM]
CC1(C)CC(=O)c2c(O)cc(OCc3ccc(Br)cc3)cc2O1 | inconclusive: 0.92 µM [activator, full curve, poor fit] | 
Cc1ccccc1-c1cc(C(=O)NCC2CC2)nn1CC1CC(c2cccc([N+](=O)[O-])c2)=NO1 (stereo not drawn) |  | inactive: -2.8%
Cc1occc1C(=O)N=Nc1c(O)n(C)c2ccccc12 | inconclusive: 1.3 µM [activator, partial curve] | 
CCn1c(O)c(/C=N/N=C2CCCCC2)c2cc(C3=NNC(=O)CC3)ccc21 |  | inactive: 0.0447% [at 46.1 µM]
CC(C)CC1(C(=O)NCc2cc(F)cc(C(F)(F)F)c2)C=CCN1C(=O)c1ccccc1 (stereo not drawn) |  | inactive: -41.9%
Cc1ccc(-c2cc(C(=O)N3CCCc4ccccc43)c3ccccc3n2)cc1 | inconclusive: 18.3 µM [inhibitor, single point] | 
COc1ccc(NC(=O)CS(=O)CC(=O)N2CCN(C3CCCC3)CC2)cc1 (stereo not drawn) | inconclusive: 12.6 µM [activator, single point] | 
Cn1c(COc2ccccc2)nnc1SCc1cc(=O)[nH]c2ccccc12 | inconclusive: 6.31 µM [activator, full curve, poor fit] | 
Cc1cccn2c(=O)c3cc(C(=O)NCCN4CCOCC4)c(=N)n(CCN4CCOCC4)c3nc12 | inconclusive: 12.6 µM [inhibitor, partial curve, poor fit] | 
CCCCc1ccc(-c2nc(-c3ccncc3)no2)cc1 |  | inactive: 26.2% [at 46.1 µM]
COc1ccc(NC(=O)CCS(=O)(=O)c2nc(-c3cccs3)cc(C(F)(F)F)n2)cc1 | inconclusive: 11.2 µM [inhibitor, partial curve, poor fit] | 
COCC(C)NCc1cc(Br)ccc1OC (stereo not drawn) |  | inactive: -2.58% [at 46.1 µM]
COc1cccc(C2c3c(oc4cc(C)cc(C)c4c3=O)C(=O)N2CCc2ccc(OC)c(OC)c2)c1 (stereo not drawn) | inconclusive: 1 µM [inhibitor, full curve, poor fit] | 
CN(NS(=O)(=O)c1ccc(Br)cc1)c1nc(C(F)(F)F)nc2ccccc12 | inconclusive: 15.8 µM [inhibitor, single point] | 
Cc1ccc(NC(=O)C2CCC(C(C)(C)C)CC2)cc1S(=O)(=O)N1CCOCC1 (stereo not drawn) | inconclusive: 14.1 µM [inhibitor, partial curve, poor fit] | 
O=C(Nc1ccccc1)Nc1cccc(Cl)c1 |  | inactive: -5.62%

Retrieved one by one from the entries so far (5):
Structure (SMILES) | Potency | activity change, negative = inhibition
Cc1ccc(-c2noc(CN3CCCCC3)n2)cc1 | inconclusive: 2.91 µM [activator, partial curve, poor fit] | 
COC(=O)c1c(NC(=O)c2cccnc2)sc(C)c1C |  | inactive: -1.75%
O=C(Nc1ccccc1)Nc1cccc(Cl)c1 |  | inactive: -5.62%
Cc1ccc(NC(=O)C2CCC(C(C)(C)C)CC2)cc1S(=O)(=O)N1CCOCC1 (stereo not drawn) | inconclusive: 14.1 µM [inhibitor, partial curve, poor fit] | 
COc1ccc(CNc2nc(-c3ccccc3)nn2S(=O)(=O)c2ccccc2)cc1 |  | inactive: 3.99% [at 46.1 µM]

More structures follow:

Structure (SMILES) | Potency | activity change, negative = inhibition
CCCNC(=O)C1=CC(c2ccc3c(c2)OCO3)=NS(=O)(=O)N1C | inconclusive: 35.5 µM [activator, single point] | 
O=[N+]([O-])c1ccc(O)c(C=Nc2ccc3nc(-c4ccccc4)[nH]c3c2)c1 | inconclusive: 15.8 µM [inhibitor, single point] | 
COc1ccc(N=Cc2sc3ccccc3c2Cl)cc1 |  | inactive: 3.17%
CC(=O)Nc1ccc(S(=O)(=O)N(CCO)Cc2ccccc2)cc1 | inconclusive: 29.1 µM [inhibitor, single point] | 
O=C(c1ccco1)N1CCN(C(=S)NC2CC3CCC2C3)CC1 (stereo not drawn) |  | inactive: -17.3% [at 46.1 µM]
O=C1c2ccccc2C(=O)N1Cc1nc2ccccc2c(=O)n1-c1cccnc1 | inconclusive: 1.26 µM [inhibitor, single point] | 
Cc1ccc(S(=O)(=O)N2CCCCC2)cc1NC(=O)Cn1ccsc1=N | inconclusive: 22.4 µM [inhibitor, single point] | 
N#Cc1ccc(S(=O)(=O)N2CCC(Oc3cccc(C(F)(F)F)c3)CC2)cc1 |  | inactive: -1.2% [at 46.1 µM]
COc1ccccc1OCCCOc1ccc(/C=C2\SC(=O)NC2=O)cc1OC | inconclusive: 6.31 µM [inhibitor, single point] | 
CC(C)(C)c1cc(C2COC(=O)COCCOCC(=O)OCCOCCO2)cc(C(C)(C)C)c1O (stereo not drawn) | inconclusive: 0.1 µM [inhibitor, full curve, poor fit] | 
c1csc(Cc2nn3c(-c4ccncc4)nnc3s2)c1 |  | inactive: -8.67%
N#Cc1c(-c2cccs2)cc(-c2cccnc2)nc1N |  | inactive: -1.87%
Cc1cccc(-c2c3c(=O)n(C)c(=O)n(C)c3c3c(C)nc4ccccc4n23)c1 |  | inactive: -4.21% [at 46.1 µM]
CCOc1ccc(S(=O)(=O)NC2CCCC2)cc1C | inconclusive: 0.501 µM [inhibitor, full curve, poor fit] | 
O=C(C1CCN(S(=O)(=O)c2ccc3c(c2)OCCO3)CC1)N1CCc2ccccc21 | inconclusive: 32.6 µM [inhibitor, single point] | 
CC(=O)N1CCc2cc(S(=O)(=O)Nc3cccc(C(F)(F)F)c3)ccc21 | inconclusive: 11.2 µM [inhibitor, partial curve] | 
CN(C)CCNC(=O)c1ccc(Sc2ccc(Br)cc2)c([N+](=O)[O-])c1 | inconclusive: 22.4 µM [inhibitor, single point] | 
Cc1ccc(C)c(C(=O)CSc2n[nH]c(-c3ccncc3)n2)c1 |  | inactive: -7.76%
COc1ccc(-c2nc(C#N)c(N3CCCCC3)o2)cc1 |  | inactive: 17.1%
O=C(N/N=C/c1ccsc1)c1cc(-c2ccncc2)nc2ccccc12 | inconclusive: 0.082 µM [inhibitor, full curve, poor fit] | 
Cc1ccc(-c2cc(C(=O)NCc3cnn(C)c3C)c3ccccc3n2)cc1C | inconclusive: 1.41 µM [activator, partial curve, poor fit] | 
COc1ccc(C2=NOC(CNC(=S)N3CCOCC3)C2)cc1 (stereo not drawn) | inconclusive: 6.31 µM [activator, full curve, poor fit] | 
